Data taken from ChEMBL document CHEMBL3988442, “University of Dundee, Small-Polar-MMV Screening Library” (2021).

By UniProt entry, the sequences of proteins in these tests, tags left out. Residues count along the entry.
UniProt P9WPC5, whole entry: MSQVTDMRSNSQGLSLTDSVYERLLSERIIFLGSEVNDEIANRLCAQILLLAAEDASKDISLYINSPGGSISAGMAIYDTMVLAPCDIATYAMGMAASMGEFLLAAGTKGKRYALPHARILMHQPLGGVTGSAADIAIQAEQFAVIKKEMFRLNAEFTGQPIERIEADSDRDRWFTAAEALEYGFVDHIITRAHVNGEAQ
UniProt P9WPC3, whole entry partner: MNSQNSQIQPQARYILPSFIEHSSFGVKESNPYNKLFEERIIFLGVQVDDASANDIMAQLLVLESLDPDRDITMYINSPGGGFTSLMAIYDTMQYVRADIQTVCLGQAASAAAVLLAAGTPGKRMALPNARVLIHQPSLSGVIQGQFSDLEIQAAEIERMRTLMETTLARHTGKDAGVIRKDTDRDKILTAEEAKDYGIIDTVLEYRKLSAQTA
UniProt I6X8D2, whole entry: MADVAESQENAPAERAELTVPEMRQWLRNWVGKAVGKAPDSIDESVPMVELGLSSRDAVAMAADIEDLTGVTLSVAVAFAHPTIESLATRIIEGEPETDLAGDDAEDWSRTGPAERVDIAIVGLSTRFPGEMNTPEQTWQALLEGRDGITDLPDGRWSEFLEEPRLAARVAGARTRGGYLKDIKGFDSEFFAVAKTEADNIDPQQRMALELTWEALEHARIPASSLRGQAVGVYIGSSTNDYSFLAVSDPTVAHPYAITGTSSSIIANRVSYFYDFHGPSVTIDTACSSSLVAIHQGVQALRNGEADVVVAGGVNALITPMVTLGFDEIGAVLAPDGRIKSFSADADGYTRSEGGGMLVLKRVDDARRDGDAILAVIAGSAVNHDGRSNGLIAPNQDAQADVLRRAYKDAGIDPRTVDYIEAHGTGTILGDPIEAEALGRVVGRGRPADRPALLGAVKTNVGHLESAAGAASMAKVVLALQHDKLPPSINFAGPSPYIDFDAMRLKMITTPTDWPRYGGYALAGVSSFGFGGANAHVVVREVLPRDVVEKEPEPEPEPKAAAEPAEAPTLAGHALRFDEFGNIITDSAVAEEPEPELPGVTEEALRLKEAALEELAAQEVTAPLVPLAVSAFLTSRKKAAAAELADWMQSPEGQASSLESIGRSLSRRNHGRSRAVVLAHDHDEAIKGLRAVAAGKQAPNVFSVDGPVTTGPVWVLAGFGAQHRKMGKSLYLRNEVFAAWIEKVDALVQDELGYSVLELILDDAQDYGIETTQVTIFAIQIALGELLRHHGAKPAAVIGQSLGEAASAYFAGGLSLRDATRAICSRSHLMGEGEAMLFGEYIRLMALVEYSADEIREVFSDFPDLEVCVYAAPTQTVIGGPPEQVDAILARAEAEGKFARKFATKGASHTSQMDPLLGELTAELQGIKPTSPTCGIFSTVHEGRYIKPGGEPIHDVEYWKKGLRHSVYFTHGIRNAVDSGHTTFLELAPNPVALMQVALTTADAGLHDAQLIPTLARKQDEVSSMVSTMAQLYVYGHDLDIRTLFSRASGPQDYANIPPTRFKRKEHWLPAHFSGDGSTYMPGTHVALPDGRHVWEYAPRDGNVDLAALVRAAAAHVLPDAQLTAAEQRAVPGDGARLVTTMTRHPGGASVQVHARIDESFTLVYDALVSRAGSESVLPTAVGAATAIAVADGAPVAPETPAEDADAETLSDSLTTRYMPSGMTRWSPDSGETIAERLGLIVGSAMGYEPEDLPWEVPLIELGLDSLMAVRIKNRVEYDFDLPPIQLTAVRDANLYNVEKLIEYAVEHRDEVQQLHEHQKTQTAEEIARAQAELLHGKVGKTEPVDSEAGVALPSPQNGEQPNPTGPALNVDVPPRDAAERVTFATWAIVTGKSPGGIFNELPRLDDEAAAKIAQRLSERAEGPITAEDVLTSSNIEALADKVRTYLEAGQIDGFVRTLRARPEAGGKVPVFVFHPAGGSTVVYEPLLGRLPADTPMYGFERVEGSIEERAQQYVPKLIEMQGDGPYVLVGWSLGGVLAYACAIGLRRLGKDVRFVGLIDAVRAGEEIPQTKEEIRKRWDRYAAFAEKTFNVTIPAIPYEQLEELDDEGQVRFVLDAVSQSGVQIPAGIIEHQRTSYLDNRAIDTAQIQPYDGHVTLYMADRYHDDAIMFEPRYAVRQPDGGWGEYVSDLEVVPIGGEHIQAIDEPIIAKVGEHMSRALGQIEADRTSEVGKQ
UniProt P9WNZ1, whole entry: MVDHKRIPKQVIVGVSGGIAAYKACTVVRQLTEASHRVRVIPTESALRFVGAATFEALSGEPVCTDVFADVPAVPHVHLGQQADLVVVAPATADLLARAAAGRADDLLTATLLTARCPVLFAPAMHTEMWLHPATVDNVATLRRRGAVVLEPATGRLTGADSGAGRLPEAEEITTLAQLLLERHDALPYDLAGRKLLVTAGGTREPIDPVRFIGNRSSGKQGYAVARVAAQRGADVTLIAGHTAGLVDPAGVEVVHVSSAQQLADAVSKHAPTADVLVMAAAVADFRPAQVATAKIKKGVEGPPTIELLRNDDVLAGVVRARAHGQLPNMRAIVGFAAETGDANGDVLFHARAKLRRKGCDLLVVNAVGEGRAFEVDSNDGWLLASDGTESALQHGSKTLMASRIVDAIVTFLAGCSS
UniProt A4I591, 1-473: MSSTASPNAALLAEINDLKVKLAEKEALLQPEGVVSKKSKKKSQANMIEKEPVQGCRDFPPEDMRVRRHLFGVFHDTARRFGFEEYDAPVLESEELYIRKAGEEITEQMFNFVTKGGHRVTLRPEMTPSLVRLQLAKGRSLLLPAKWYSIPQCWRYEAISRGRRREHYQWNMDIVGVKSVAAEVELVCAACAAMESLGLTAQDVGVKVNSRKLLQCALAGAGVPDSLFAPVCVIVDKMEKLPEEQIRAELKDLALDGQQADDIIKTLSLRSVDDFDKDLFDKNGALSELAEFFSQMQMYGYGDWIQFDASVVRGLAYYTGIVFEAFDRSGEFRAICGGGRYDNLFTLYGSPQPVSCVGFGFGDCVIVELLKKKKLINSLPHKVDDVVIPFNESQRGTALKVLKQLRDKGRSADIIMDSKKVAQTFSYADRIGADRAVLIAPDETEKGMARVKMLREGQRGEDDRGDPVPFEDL
UniProt Q4DA54, 1-478: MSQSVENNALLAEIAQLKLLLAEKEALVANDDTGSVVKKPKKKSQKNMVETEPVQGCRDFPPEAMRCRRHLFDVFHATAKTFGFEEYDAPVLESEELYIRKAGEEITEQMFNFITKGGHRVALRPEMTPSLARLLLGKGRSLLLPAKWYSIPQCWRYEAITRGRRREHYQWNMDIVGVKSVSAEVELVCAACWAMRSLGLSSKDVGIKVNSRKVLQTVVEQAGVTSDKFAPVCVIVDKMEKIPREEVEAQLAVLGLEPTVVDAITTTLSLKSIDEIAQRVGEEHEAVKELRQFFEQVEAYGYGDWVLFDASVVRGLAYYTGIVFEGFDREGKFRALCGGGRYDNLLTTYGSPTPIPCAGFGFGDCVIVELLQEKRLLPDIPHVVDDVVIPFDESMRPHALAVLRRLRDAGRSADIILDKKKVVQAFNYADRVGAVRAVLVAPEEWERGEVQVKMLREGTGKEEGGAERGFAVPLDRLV

The filed quantity is “Percent Effect” (%).
The record does not define 0% and 100%; most values in the screen are far below 50% and negative numbers occur (in some assays of this library far below -100).
This is an unselected part of the compounds tested.
A dash means the value is not listed here; it may have been measured.

ClpP1P2: 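ClpP1P2, Mycobacterium tuberculosis (UniProt P9WPC5 and UniProt P9WPC3). Protease assay of ClpP1P2, read by the AMC dye that it sets free. Compounds at 50 µM. Higher reads as stronger inhibition, judged from the few compounds that gave an IC50. Most other retested compounds had strongly negative values. Size under these conditions: about 69,000 compounds, about 10 of them at 50% or above in at least one test.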
Pks13 thioesterase: 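Polyketide synthase Pks13, Mycobacterium tuberculosis (UniProt I6X8D2). Enzyme assay of the thioesterase domain of polyketide synthase 13; the read-out is not stated. Concentration: 30 µM. Higher reads as stronger inhibition (inferred from which compounds were picked for retests). About 67,000 compounds were tested under these conditions; 0.46% (about 300) showed 50% or more at least once.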
CoaBC: 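Enzyme assay of CoaBC with a phosphate dye (Biomol Green) read at 650 nm. Target: Coenzyme A biosynthesis protein CoaBC, Mycobacterium tuberculosis (UniProt P9WNZ1). Compounds at 30 µM. Direction is inferred from only a few compounds that gave an IC50; most scored high, so higher reads as stronger inhibition. Most strong results did not repeat in a second test. Size under these conditions: about 67,000 compounds, about 40 of them at 50% or above in at least one test.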
LiHisRS: 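Histidine-tRNA ligase, Leishmania infantum (UniProt A4I591). Enzyme assay of histidyl-tRNA synthetase; the read-out is not stated. Tested at 30 µM. Direction is inferred from retests: higher values go with stronger inhibition. The assay is labelled LdHisRS but filed under L. infantum. Of about 69,000 compounds tested this way, about 410 (0.6%) reached 50% or more in at least one test.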
TcHisRS: 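Enzyme assay of histidyl-tRNA synthetase; the read-out is not stated. Target: Histidine-tRNA ligase, Trypanosoma cruzi CL Brener (UniProt Q4DA54). Concentration: 30 µM. The record gives no direction; compounds that gave an IC50 in retests scored well above the rest, so higher reads as stronger inhibition. About 69,000 compounds were tested under these conditions; 0.045% (about 31) showed 50% or more at least once.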

| SMILES | ClpP1P2 | Pks13 thioesterase | CoaBC | LiHisRS | TcHisRS |
|---|---|---|---|---|---|
| `COc1ccc(NC(C)=O)c(N2CCN(C(C)=O)CC2)n1` | -2.864% | -0.9873% | 4.348% | 17.31% | 2.674% |
| `Cc1c[nH]nc1C1CCCCN1C(=O)CC1(O)CCCCC1` (stereo not drawn) | -7.773% | 16.16% | 3.398% | 15.94% | 8.791% |
| `Cc1cccc(S(=O)(=O)NCc2cccc(CS(C)(=O)=O)c2)c1` | -3.587% | -8.329% | 5.897% | 15.08% | 8.235% |
| `CC[C@@H]1N(Cc2ccccn2)CCC[C@]12CCC(=O)N2CCOC` | -21.92% | 6.138% | -3.457% | 6.944% | 3.738% |
| `CSc1cccc(NC(=O)Nc2c(O)oc3ccccc3c2=O)c1` | -3.149% | 6.727% | 3.061% | 16.05% | -0.4464% |
| `COc1ccccc1-c1noc(CNc2ccc(F)cc2OCCO)n1` | -4.462% | -10.5% | -1.241% | 19.15% | -6.358% |
| `CC(C)Oc1ccc(C(=O)NCc2ccnc(N3CCCC3)c2)cn1` | 3.316% | - | 6.962% | 22.08% | -2.463% |
| `CC(C)(O)CCc1cccc(C(=O)N[C@H](C(N)=O)c2ccccc2)c1` | -22.48% | -1.005% | -1.863% | 15.83% | 4.831% |
| `Cc1noc(C)c1Cc1nc(N(C)C)no1` | -0.4653% | 2.054% | 6.84% | 3.297% | 1.031% |
| `CNC(=O)C1(CCCc2ccccn2)CN(Cc2nccn2C)C1` | 7.361% | -7.841% | 4.54% | 12.77% | 4.651% |
| `Fc1ccc2c(c1)C(NCc1nnc3n1CCCCC3)CCCO2` (stereo not drawn) | -8.147% | -29.87% | 14.54% | 9.434% | -3.39% |
| `CCN1CCN(C2CCN(CC(=O)NCC(F)(F)F)CC2)C1=O` | -18.05% | -3.157% | -5.249% | 11.86% | 3.429% |
| `Cc1ccc(N2CCCC(N3CCN(CC(F)F)CC3)C2=O)cc1` (stereo not drawn) | -0.8324% | - | 2.161% | 11.4% | 6.897% |
| `Cc1cc(C(=O)O)c2c(Br)cccc2n1` | 2.877% | 4.992% | 6.997% | 19.51% | 9.135% |
| `Cc1cccc(N2CCOCC3(C2)CN(c2ccccc2)C(=O)CO3)n1` (stereo not drawn) | -17.94% | -1.322% | 2.788% | 3.846% | 1.676% |
| `COc1nn(C)c2c1CCCN(C(=O)c1ccc[nH]1)C2` | 1.47% | -4.353% | 2.689% | 9.877% | -10.43% |
| `COc1cc(NC(=O)NCc2nccn2C)ccc1Br` | -8.629% | 10.35% | 4.132% | 13.39% | 11.67% |
| `Cc1cccc(C(=O)N2C[C@H]3CC[C@@H]2CN(S(=O)(=O)N(C)C)C3)n1` | -7.771% | -11.59% | 0.615% | 19.35% | 10.34% |
| `CCc1cnc(N2C[C@H]3C[C@H](C(=O)NCC(C)C)[C@@H](C2)O3)nc1` | -7.946% | -24.05% | -2.258% | 19.44% | 7.463% |
| `C[C@@H]1C(=O)NC[C@H]2CN(Cc3ccsc3)C[C@H]21` | 0.07755% | -7.078% | 0.4837% | 21.95% | 3.759% |
| `Cc1cc(C(=O)N2Cc3ccccc3OC3(CCOCC3)C2)nc(N)n1` | 1.983% | -15.59% | -0.2778% | 25% | 1.622% |
| `CN(CC(F)(F)F)C(=O)CNC(=O)Cc1ccc(O)cc1Cl` | -7.686% | -9.288% | -9.96% | 8.219% | 5.263% |
| `COC(=O)c1cnc(/C=C/c2ccc(C(=O)O)cc2)s1` | 5.778% | 6.377% | 5.134% | 13.7% | 4.372% |
| `CCC1=NC(SCC(=O)c2ccccc2)c2cc(CC)sc2N1` (stereo not drawn) | 15.59% | 5.689% | 5.312% | 1.724% | 4.348% |
| `COc1cccc(S(=O)(=O)CCN2CCCC2c2ccc[nH]2)c1` (stereo not drawn) | -9.404% | -15.24% | -0.3654% | 11.83% | 5.357% |
| `Cc1ncsc1C(=O)NC1CCN(CCC(=O)Nc2ccccc2)CC1` | -4.379% | -6.59% | 1.434% | 9.649% | 4.624% |
| `CO[C@H]1CCN(C(=O)Cc2ccsc2)[C@@H]2CN(CC3CC3)C[C@H]12` | 5.16% | - | 3.99% | 11.54% | 1.942% |
| `COc1ccnc(N2CCN(C(=O)CN3CCOCC3)CC2)n1` | -11.15% | -30.05% | 4.563% | 13.16% | 0.578% |
| `O=C(NCc1ccc2c(c1)OCO2)N1CCCC2(C1)OCCO2` | 2.636% | -19.53% | 3.19% | 6.667% | 3.922% |
| `Cc1n[nH]c(C)c1CNC(=O)N1CCCC(Cc2nccn2C)C1` (stereo not drawn) | -12.71% | -1.789% | 6.091% | 15.29% | 6.726% |
| `CN1C[C@@H](O)[C@]2(CCN(C(=O)c3ccccc3)C2)S1(=O)=O` | -6.457% | 5.097% | 1.595% | 0% | -3.468% |
| `O=C(Nc1cccc(CNCc2cccs2)c1)C1CC1` | -21.38% | -13.05% | -0.6227% | 16.51% | 6.122% |
| `CCC(CC)C(=O)n1ccn(S(=O)(=O)c2ccc(C)cc2)c1=O` | -5.633% | 69.1% | 0.2532% | 28.95% | -3.659% |
| `CCCSc1nc(N)c(NC(=O)c2ccc(OC)c(OC)c2)c(=O)[nH]1` | 12.72% | -22.34% | -7.4% | 13.91% | 0% |
| `N[C@@H]1CC[C@H](C(=O)NCCn2cc(Cl)cn2)C1` | -2.507% | 17.02% | 0.8% | -2.564% | 4.598% |
| `Cc1[nH]c2ccccc2c1-c1ccnc(NCCN2CCCCC2)n1` | -1.394% | 11.71% | 6.627% | 8.571% | 9.04% |
| `c1cnc(NC[C@@H]2CCC[C@@H]3CN(Cc4cc[nH]n4)C[C@@H]32)nc1` | 5.825% | -17.94% | -33.33% | 21.15% | 0.5348% |
| `O=C(NCC1OCCc2cn(CC3CCOCC3)nc21)c1ccsc1` (stereo not drawn) | -5.806% | -0.469% | 7.368% | 11.5% | 1.075% |
| `O=C(c1cc2c([nH]c1=O)CCC2)N1CCCCCC1c1ccncc1` (stereo not drawn) | 2.188% | -19.8% | -3.024% | 18.18% | 2.174% |
| `CN1C[C@@H]2CN(C(=O)NCc3cccc(F)c3)CCC[C@]2(C(=O)O)C1` | 3.541% | 13.2% | -7.582% | 6% | 6.897% |
| `CCc1nnc(CN2CCCC(c3cc(C(F)(F)F)[nH]n3)C2)o1` (stereo not drawn) | -5.601% | 2.067% | 4.824% | 4.054% | 3.396% |
| `CS(=O)(=O)Cc1nc(CN2CC=C(c3ccccc3)CC2)cs1` | 0.8519% | -19.06% | 6.237% | 15.38% | 6.18% |
| `CC(C)CNC(=O)[C@H]1C[C@@H]2CN(C(=O)NCCc3ccccc3)C[C@H]1O2` | -10.74% | -9.179% | 1.681% | 3.636% | 2.479% |
| `CCOCC1CN(S(=O)(=O)C2CC2)Cc2nn(C)cc21` (stereo not drawn) | 6.959% | -28.57% | 2.956% | 22% | 1.031% |
| `CCN(Cc1cccc(F)c1)c1ccc2nnnn2n1` | 10.55% | -8.463% | 4.435% | 22.81% | -2.521% |
| `CS(=O)(=O)N1CCCN(C(=O)c2ccc(Cn3ccccc3=O)o2)CC1` | 8.765% | 2.09% | 5.396% | 15.38% | 1.149% |
| `COc1cc2nc(C)sc2cc1NC(=O)CN(C)C(C)C` | -19.79% | 2.965% | 0.1212% | 8.065% | 3.061% |

Once more, the final 4:

| SMILES | ClpP1P2 | Pks13 thioesterase | CoaBC | LiHisRS | TcHisRS |
|---|---|---|---|---|---|
| `CCOCC1CN(S(=O)(=O)C2CC2)Cc2nn(C)cc21` (stereo not drawn) | 6.959% | -28.57% | 2.956% | 22% | 1.031% |
| `CCN(Cc1cccc(F)c1)c1ccc2nnnn2n1` | 10.55% | -8.463% | 4.435% | 22.81% | -2.521% |
| `CS(=O)(=O)N1CCCN(C(=O)c2ccc(Cn3ccccc3=O)o2)CC1` | 8.765% | 2.09% | 5.396% | 15.38% | 1.149% |
| `COc1cc2nc(C)sc2cc1NC(=O)CN(C)C(C)C` | -19.79% | 2.965% | 0.1212% | 8.065% | 3.061% |